Laboratory results taken from paper PMC2745413.
Results are given in words; binding and its absence hold for the method and conditions named. In cells and extracts the contact can be indirect. Some entries that bind do so weakly or less than the wild type.

Chains of the proteins cited; added tags and fusions are not shown.
UniProt P35222: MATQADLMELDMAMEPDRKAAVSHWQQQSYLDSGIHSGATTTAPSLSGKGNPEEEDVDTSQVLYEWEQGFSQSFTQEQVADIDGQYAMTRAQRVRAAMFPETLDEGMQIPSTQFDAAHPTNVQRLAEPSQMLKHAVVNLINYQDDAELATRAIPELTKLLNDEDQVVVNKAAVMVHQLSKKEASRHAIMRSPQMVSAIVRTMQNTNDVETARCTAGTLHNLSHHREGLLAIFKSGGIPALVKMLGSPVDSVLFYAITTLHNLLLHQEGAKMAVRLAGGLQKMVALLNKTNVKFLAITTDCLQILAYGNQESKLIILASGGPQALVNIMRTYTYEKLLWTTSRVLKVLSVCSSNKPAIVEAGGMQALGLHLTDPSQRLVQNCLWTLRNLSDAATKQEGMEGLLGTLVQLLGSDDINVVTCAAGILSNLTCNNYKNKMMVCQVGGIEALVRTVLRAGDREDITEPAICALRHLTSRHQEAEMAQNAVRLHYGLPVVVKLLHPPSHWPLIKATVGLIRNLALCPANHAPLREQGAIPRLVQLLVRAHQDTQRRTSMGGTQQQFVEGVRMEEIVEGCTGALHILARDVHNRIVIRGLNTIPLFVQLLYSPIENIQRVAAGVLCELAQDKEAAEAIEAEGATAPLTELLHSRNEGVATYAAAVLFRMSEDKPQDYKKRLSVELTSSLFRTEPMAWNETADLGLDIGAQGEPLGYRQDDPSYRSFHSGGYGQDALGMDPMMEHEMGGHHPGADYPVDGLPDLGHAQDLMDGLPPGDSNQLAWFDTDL
UniProt P46940: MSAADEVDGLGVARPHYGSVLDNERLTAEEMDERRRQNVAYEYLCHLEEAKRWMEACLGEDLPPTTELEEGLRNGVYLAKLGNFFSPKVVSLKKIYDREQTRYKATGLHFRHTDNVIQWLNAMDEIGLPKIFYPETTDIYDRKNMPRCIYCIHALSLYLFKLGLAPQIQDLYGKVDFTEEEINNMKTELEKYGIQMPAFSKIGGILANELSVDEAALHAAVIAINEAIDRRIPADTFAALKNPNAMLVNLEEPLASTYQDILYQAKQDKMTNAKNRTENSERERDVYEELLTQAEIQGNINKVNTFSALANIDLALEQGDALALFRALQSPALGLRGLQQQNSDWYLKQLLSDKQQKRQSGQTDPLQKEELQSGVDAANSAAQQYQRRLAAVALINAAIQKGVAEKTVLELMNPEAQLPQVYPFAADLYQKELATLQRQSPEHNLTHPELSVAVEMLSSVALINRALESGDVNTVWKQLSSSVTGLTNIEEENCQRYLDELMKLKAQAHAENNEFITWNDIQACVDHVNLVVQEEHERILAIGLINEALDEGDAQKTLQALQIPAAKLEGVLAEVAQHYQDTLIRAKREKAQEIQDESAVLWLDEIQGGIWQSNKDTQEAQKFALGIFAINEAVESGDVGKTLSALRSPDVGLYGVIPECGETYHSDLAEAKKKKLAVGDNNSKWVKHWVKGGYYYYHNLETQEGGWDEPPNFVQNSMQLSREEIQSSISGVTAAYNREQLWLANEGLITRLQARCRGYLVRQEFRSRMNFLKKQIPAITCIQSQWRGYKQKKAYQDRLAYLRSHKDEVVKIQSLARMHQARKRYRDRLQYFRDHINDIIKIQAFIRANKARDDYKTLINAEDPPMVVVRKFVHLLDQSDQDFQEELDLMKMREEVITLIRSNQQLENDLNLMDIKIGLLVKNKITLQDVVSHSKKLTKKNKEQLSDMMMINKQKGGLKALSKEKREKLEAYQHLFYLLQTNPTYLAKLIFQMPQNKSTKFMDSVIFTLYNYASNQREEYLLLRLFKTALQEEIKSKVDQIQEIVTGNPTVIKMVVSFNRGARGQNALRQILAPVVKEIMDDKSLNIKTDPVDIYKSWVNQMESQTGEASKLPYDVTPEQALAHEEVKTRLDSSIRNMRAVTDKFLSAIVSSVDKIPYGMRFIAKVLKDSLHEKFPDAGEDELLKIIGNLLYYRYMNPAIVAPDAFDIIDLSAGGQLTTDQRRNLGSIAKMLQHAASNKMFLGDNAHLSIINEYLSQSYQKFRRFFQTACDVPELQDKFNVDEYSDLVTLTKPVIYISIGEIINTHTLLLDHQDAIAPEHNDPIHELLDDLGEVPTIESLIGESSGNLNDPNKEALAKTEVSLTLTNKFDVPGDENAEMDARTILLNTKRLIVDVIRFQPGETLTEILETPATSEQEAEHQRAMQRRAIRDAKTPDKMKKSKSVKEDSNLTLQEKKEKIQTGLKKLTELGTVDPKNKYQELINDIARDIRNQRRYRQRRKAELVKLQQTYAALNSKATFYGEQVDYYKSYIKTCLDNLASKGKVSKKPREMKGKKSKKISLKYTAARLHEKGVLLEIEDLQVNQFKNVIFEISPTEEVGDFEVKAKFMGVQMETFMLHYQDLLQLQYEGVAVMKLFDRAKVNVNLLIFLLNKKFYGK

Legend:
[1] = target: β-catenin (endogenous) (human (endogenous in PANC-1)) (UniProt P35222); test: condition: only particulate fraction of EGFP-Rac1(V12)-expressing cells; co-IP; 300 μg of the particulate (P100) fraction of EGFP-Rac1(V12)-expressing PANC-1 cells, for the pair IQGAP1 and β-catenin; IQGAP1 or β-catenin precipitated; Western blot
[2] = target: GST-β-catenin (UniProt P35222); test: condition: only lysate of EGFP-Rac1(V12)-expressing cells; pull-down; 20-40 μg GST-β-catenin immobilised to glutathione sepharose, 500 μg RIPA lysate of EGFP-Rac1(V12)-expressing PANC-1 cells, 60 min at 4°C; Western blot for IQGAP1; only the target purified
[3] = target: β-catenin (endogenous) (human (endogenous in PANC-1)) (UniProt P35222); test: co-IP; 300 μg of the particulate, membrane-containing (P100) fraction of PANC-1 clones expressing EGFP, EGFP-Rac1(V12) or EGFP-Rac1(N17); IQGAP1 or β-catenin precipitated; Western blot
[4] = target: GST-β-catenin (UniProt P35222); test: pull-down; 20-40 μg GST-β-catenin immobilised to glutathione sepharose, 500 μg RIPA lysate of EGFP-Rac1(N17)-expressing PANC-1 cells, 60 min at 4°C; Western blot for IQGAP1; only the target purified
[5] = target: IQGAP1 (human (endogenous in PANC-1)) (UniProt P46940); test: co-IP; 300 μg of the soluble (S100) fraction of PANC-1 clones expressing EGFP, EGFP-Rac1(V12) or EGFP-Rac1(N17); IQGAP1 or β-catenin precipitated; Western blot
[6] = target: IQGAP1 (human (endogenous in PANC-1)) (UniProt P46940); test: co-IP; μMACS protein isolation system, NOP lysate (50 mM Tris/HCl pH 7.2, 1% Triton X-100, 1% NP-40, 150 mM NaCl) of PANC-1 clones stably expressing EGFP, EGFP-Rac1(V12) or EGFP-Rac1(N17); also PANC-1 cells treated with PDGF AB or NSC23766; Western blot
[7] = target: IQGAP1 (human (endogenous in PANC-1)) (UniProt P46940); test: co-IP; 300 μg of the particulate (P100) fraction of EGFP-Rac1(V12)-expressing PANC-1 cells, for the pair IQGAP1 and β-catenin; IQGAP1 or β-catenin precipitated; Western blot
[8] = target: IQGAP1 (human (endogenous in PANC-1)) (UniProt P46940); test: co-IP; 300 μg of the particulate, membrane-containing (P100) fraction of PANC-1 clones expressing EGFP, EGFP-Rac1(V12) or EGFP-Rac1(N17); IQGAP1 or β-catenin precipitated; Western blot
[9] = target: IQGAP1 (human (endogenous in PANC-1)) (UniProt P46940); test: co-IP; as a2, total lysate of EGFP-Rac1(V12)-expressing PANC-1 cells; IQGAP1 precipitated, β-catenin blotted

| Substance | binding [1] | binding [2] | binding [3] | binding [4] | binding [5] | binding [6] | binding [7] | binding [8] | binding [9] |
| --- | --- | --- | --- | --- | --- | --- | --- | --- | --- |
| IQGAP1 (from UniProt P46940 1-1657) | no binding | no binding | binds | binds |  |  |  |  |  |
| β-catenin (endogenous) (from UniProt P35222 1-781) |  |  |  |  | no binding (condition: in the soluble (S100) fraction) | binds | binds weakly | binds | binds weakly |
